No constants are given. Whether binding was seen depends on the method and setting. Binding seen in cells or lysates may run through a third protein. Binding calls can cover weak binding; strength is not graded here. Where a sequence is shown, tags or fusion partners need not be part of it.
B1: HA-tagged SGIP1α (protein, UniProt Q8VD37-6 1-854)
chain: MMEGLKKRTRKAFGIRKKEKDTDSTGSPDRDGMQGKKKAQKTQLLLTSCFWLRALSLTLSQQPSPHEPPYHSKAECAREGGKKASKKSNGAPNGFYAEIDWERYNSPELDEEGYSIRPEEPGSTKGKHFYSSSESEEEEESHKKFNIKIKPLQSKDVLKNAATVDELKASIGNIALSPSPVRKSPRRSPGAIKRNLSSEEVARPRRSTPTPELTSKKPLDDTLALAPLFGPPLESAFDEQKTEVLLDQPEIWGSGQPMNPSTESPELARPFPTGTPPPLPPKTVPATPPRTGSPLTVATGNDQAATEAKIEKLPSISDLDSIFGPVLSPKSVAVNTEEKWVHFSDASPEHVTPELTPREQVVTPPAASDIPADSPAPAPPGPTGSAGPPGPPGPRHVPSPLNLEEVQKKVAEQTFIKDDYLETLSSPKECGLGQRATPPPPPPPTYRTVVSSPGPGSGSGTGTTSGASSPARPATPLVPCSTTPPPPPPRPPSRPKLPPGKPGVGDVSRPFSPPIHSSSPPPIAPLARAESTSSISSTNSLSAATTPTVENEQPSLVWFDRGKFYLTFEGSSRGPSPLTMGAQDTLPVAAAFTETVNAYFKGADPSKCIVKITGEMVLSFPAGITRHFANNPSPAALTFRVVNSSRLEHVLPNPQLLCCDNTQNDANTKEFWVNMPNLMTHLKKVSEQKPQATYYNVDMLKYQVSAQGIQSTPLNLAVNWRCEPASTDLRIDYKYNTDAMSTAVALNNVQFLVPIDGGVTKLQAVLPPAVWNAEQQRILWKIPDISQKSENGGVGSLLARFQLSEGPSKPSPLVVQFTSEGSTLSGCDIELVGAGYRFSLIKKRFAAGKYLADN
B2: HA-SGIP1α-μHD (aa 550–854) (domain or fragment, UniProt Q8VD37-6 550-854)
chain: ENEQPSLVWFDRGKFYLTFEGSSRGPSPLTMGAQDTLPVAAAFTETVNAYFKGADPSKCIVKITGEMVLSFPAGITRHFANNPSPAALTFRVVNSSRLEHVLPNPQLLCCDNTQNDANTKEFWVNMPNLMTHLKKVSEQKPQATYYNVDMLKYQVSAQGIQSTPLNLAVNWRCEPASTDLRIDYKYNTDAMSTAVALNNVQFLVPIDGGVTKLQAVLPPAVWNAEQQRILWKIPDISQKSENGGVGSLLARFQLSEGPSKPSPLVVQFTSEGSTLSGCDIELVGAGYRFSLIKKRFAAGKYLADN
B3: HA-SGIP1α-ΔμHD (aa 1–549) (domain or fragment, UniProt Q8VD37-6 1-549)
chain: MMEGLKKRTRKAFGIRKKEKDTDSTGSPDRDGMQGKKKAQKTQLLLTSCFWLRALSLTLSQQPSPHEPPYHSKAECAREGGKKASKKSNGAPNGFYAEIDWERYNSPELDEEGYSIRPEEPGSTKGKHFYSSSESEEEEESHKKFNIKIKPLQSKDVLKNAATVDELKASIGNIALSPSPVRKSPRRSPGAIKRNLSSEEVARPRRSTPTPELTSKKPLDDTLALAPLFGPPLESAFDEQKTEVLLDQPEIWGSGQPMNPSTESPELARPFPTGTPPPLPPKTVPATPPRTGSPLTVATGNDQAATEAKIEKLPSISDLDSIFGPVLSPKSVAVNTEEKWVHFSDASPEHVTPELTPREQVVTPPAASDIPADSPAPAPPGPTGSAGPPGPPGPRHVPSPLNLEEVQKKVAEQTFIKDDYLETLSSPKECGLGQRATPPPPPPPTYRTVVSSPGPGSGSGTGTTSGASSPARPATPLVPCSTTPPPPPPRPPSRPKLPPGKPGVGDVSRPFSPPIHSSSPPPIAPLARAESTSSISSTNSLSAATTPTV

Protein sequences, listed by entry. Tags and fused reporters are not part of them. Lines headed by an entry give the natural chain unless they say otherwise; changes in a name come on top.
UniProt P21579: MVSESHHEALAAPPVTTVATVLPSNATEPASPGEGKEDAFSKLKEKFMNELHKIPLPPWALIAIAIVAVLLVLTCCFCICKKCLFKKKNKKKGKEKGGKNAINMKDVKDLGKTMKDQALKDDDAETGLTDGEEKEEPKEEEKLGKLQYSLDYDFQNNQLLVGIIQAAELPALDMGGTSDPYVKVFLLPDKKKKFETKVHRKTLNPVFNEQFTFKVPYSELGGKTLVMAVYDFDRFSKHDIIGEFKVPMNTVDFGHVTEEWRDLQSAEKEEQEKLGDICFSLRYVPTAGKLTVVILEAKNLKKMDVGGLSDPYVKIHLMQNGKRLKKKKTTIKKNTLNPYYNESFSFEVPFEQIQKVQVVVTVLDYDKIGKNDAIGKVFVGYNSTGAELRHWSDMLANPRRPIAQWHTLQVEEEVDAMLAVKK

Biological target: T1, Recombinant human GST-Syt1-C2AB domain (human, UniProt P21579 81-422)
T1 construct: human synaptotagmin 1, cytoplasmic C2AB domains (C2A and C2B); Construct was a gift (Dr. Namgi Lee); also called C2AB fusion protein; GST-fused cytoplasmic (C2AB) domains of Syt1; not shown: GST, N-terminal, kept
Assay: pull-down; GST fusion protein on beads incubated with cleared extracts of transfected HEK293T cells (1 mg at 1 mg/ml) for 4 h at 4 °C; lysis buffer 20 mM Tris-HCl pH 8.0, 137 mM NaCl, 2 mM EDTA, 1% Triton X-100; bound proteins detected by immunoblot for HA; only the target purified

Binder	binding
B1	binds
B2	binds
B3	no binding

Reference: article PMC6499997, “SGIP1α functions as a selective endocytic adaptor for the internalization of synaptotagmin 1 at synapses” (Molecular Brain, 2019)
